Values from PubChem BioAssay AID1053208 (Peter MacCallum Cancer Centre, 2014).

Assay: 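Find knock-downs that sensitise mouse osteosarcoma cells to doxorubicin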 (primary screen)
Cells: mouse osteosarcoma cells, early-passage culture from an engineered mouse model of fibroblastic bone tumour
Knock-down reagent: siRNA pool against mouse genes, 40 nM
Timing: about 120 h (48 h before drug, then 72 h with drug)
Challenge: doxorubicin 100 nM for 72 h, roughly 30-40% inhibitory dose
Measurement: 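Luminescent ATP signal taken as viability with or without 100 nM doxorubicin for 72 h; mean of two wells set against non-targeting siRNA and turned into robust z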
Scale: viability z-score with doxorubicin and doxorubicin viability vs non-targeting: higher = more viable cells under doxorubicin; viability z-score without drug: higher = more viable cells with knock-down alone; z-score of drug to no-drug ratio: higher = less drug sensitisation by knock-down
Rule for the call: 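Called active if knock-down leaves viability unchanged without drug (z within -2 to 2) but lowers it with doxorubicin (z at or under -2)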
The whole screen tested about 17,000 reagents; this is a random part of them. 788 of all reagents (4.7%) were called active. 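Calls rest on z-score classes alone; an extra cut-off of viability at most 70% of control was not applied to them.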 Some reagents were tested in more than one well and are listed for each.

| Gene | combined z-score class | viability z-score with doxorubicin | viability z-score without drug | z-score of drug to no-drug ratio | doxorubicin viability vs non-targeting | activity call |
| --- | --- | --- | --- | --- | --- | --- |
| Crat (carnitine acetyltransferase) | no change with or without drug | -0.45 | -0.84 | 0.22 | 0.9 | inactive |
| Arrdc4 (arrestin domain containing 4) | no change with or without drug | -0.67 | 0.84 | -1.12 | 0.88 | inactive |
| Gpr180 (G protein-coupled receptor 180) | no change with or without drug | -1.24 | 0.51 | -1.46 | 0.83 | inactive |
| Cirbp (cold inducible RNA binding protein) | no change with or without drug | -1.01 | 0.84 | -1.46 | 0.85 | inactive |
| Chl1 (cell adhesion molecule L1-like) | no change with or without drug | -0.11 | -0.51 | 0.34 | 0.93 | inactive |
| Tcn2 (transcobalamin 2) | no change with or without drug | -1.69 | -0.51 | -1.35 | 0.79 | inactive |
| Nek1 (NIMA (never in mitosis gene a)-related expressed kinase 1) | high cell count with doxorubicin only | 2.25 | 0.84 | 1.8 | 1.14 | inactive |
| Tsr1 (TSR1 20S rRNA accumulation) | no change with or without drug | 0.22 | 0.84 | -0.22 | 0.96 | inactive |
| Dach1 (dachshund family transcription factor 1) | no change with or without drug | 0.11 | 0.84 | -0.34 | 0.95 | inactive |
| 6330500D04RIK | no change with or without drug | -0.45 | 0.67 | -0.79 | 0.9 | inactive |
| Pfkfb3 (6-phosphofructo-2-kinase/fructose-2,6-biphosphatase 3) | no change with or without drug | 1.35 | 1.35 | 0.56 | 1.06 | inactive |
| Kif13b (kinesin family member 13B) | no change with or without drug | 0.67 | -0.17 | 0.9 | 1 | inactive |
| Tbc1d2 (TBC1 domain family, member 2) | no change with or without drug | -1.8 | -0.67 | -1.35 | 0.78 | inactive |
| Cnot10 (CCR4-NOT transcription complex, subunit 10) | no change with or without drug | -1.57 | 0.17 | -1.69 | 0.8 | inactive |
| Chst14 (carbohydrate sulfotransferase 14) | no change with or without drug | -0.9 | 1.01 | -1.46 | 0.86 | inactive |
| Myh2 (myosin, heavy polypeptide 2, skeletal muscle, adult) | no change with or without drug | -0.79 | -0.17 | -0.56 | 0.87 | inactive |
| Sdhaf2 (succinate dehydrogenase complex assembly factor 2) | no change with or without drug | 0.45 | -0.34 | 0.79 | 0.98 | inactive |
| Slc2a6 | no change with or without drug | -0.22 | -0.51 | 0.22 | 0.92 | inactive |
| Chrna6 (cholinergic receptor, nicotinic, alpha polypeptide 6) | no change with or without drug | -0.22 | -0.17 | 0 | 0.92 | inactive |
| D430033A06RIK | no change with or without drug | -0.45 | -0.51 | 0 | 0.9 | inactive |
| Rfk (riboflavin kinase) | no change with or without drug | 0.45 | 1.52 | -0.45 | 0.98 | inactive |
| Adgre4 (adhesion G protein-coupled receptor E4) | no change with or without drug | -0.22 | 0.84 | -0.67 | 0.92 | inactive |
| Or51f23 (olfactory receptor family 51 subfamily F member 23) | no change with or without drug | -1.01 | -1.85 | 0.34 | 0.85 | inactive |
| Wscd1 (WSC domain containing 1) | no change with or without drug | 0.79 | 0.51 | 0.56 | 1.01 | inactive |
| Tbc1d25 (TBC1 domain family, member 25) | no change with or without drug | 1.24 | -1.18 | 2.36 | 1.05 | inactive |
| Adgrf4 (adhesion G protein-coupled receptor F4) | no change with or without drug | -0.22 | 0.17 | -0.22 | 0.92 | inactive |
| Pxdc1 (PX domain containing 1) | no change with or without drug | 1.57 | 1.35 | 0.79 | 1.08 | inactive |
| Ifngr1 (interferon gamma receptor 1) | no change with or without drug | -0.45 | 0.51 | -0.67 | 0.9 | inactive |
| Lipi (lipase I) | no change with or without drug | 1.24 | 0.51 | 1.01 | 1.05 | inactive |
| Vmn1r237 (vomeronasal 1 receptor 237) | no change with or without drug | -1.35 | 0.34 | -1.46 | 0.82 | inactive |
| Esyt1 (extended synaptotagmin-like protein 1) | no change with or without drug | -0.11 | 1.35 | -0.9 | 0.93 | inactive |
| Ca1 (carbonic anhydrase 1) | no change with or without drug | -0.79 | -0.51 | -0.34 | 0.87 | inactive |
| Dclre1a (DNA cross-link repair 1A) | high cell count with doxorubicin only | 2.02 | 1.52 | 1.12 | 1.12 | inactive |
| Ift74 (intraflagellar transport 74) | no change with or without drug | -0.9 | -0.84 | -0.22 | 0.86 | inactive |
| Or2y1f (olfactory receptor family 2 subfamily Y member 1F) | no change with or without drug | -0.56 | -1.18 | 0.34 | 0.89 | inactive |
| Penk (preproenkephalin) | no change with or without drug | 0.9 | -0.17 | 1.24 | 1.02 | inactive |
| Tirap | no change with or without drug | 1.01 | 0.17 | 1.01 | 1.03 | inactive |
| Elmo1 (engulfment and cell motility 1) | no change with or without drug | 0.22 | 0.17 | 0.22 | 0.96 | inactive |
| Phf10 (PHD finger protein 10) | low cell count with doxorubicin only | -2.7 | 1.18 | -3.26 | 0.7 | active |
| Commd8 (COMM domain containing 8) | no change with or without drug | 1.91 | 1.35 | 1.12 | 1.11 | inactive |
| Nudt22 (nudix hydrolase 22) | high cell count with and without drug | 2.81 | 2.02 | 1.46 | 1.19 | inactive |
| Tvp23b (trans-golgi network vesicle protein 23B) | no change with or without drug | -0.45 | 0.84 | -0.9 | 0.9 | inactive |
| Rspo3 (R-spondin 3) | no change with or without drug | -0.22 | 1.01 | -0.79 | 0.92 | inactive |
| Ippk (inositol 1,3,4,5,6-pentakisphosphate 2-kinase) | no change with or without drug | -0.22 | -0.51 | 0.22 | 0.92 | inactive |
| Ippk (inositol 1,3,4,5,6-pentakisphosphate 2-kinase) | no change with or without drug | -0.34 | -0.67 | 0.22 | 0.91 | inactive |
| Rab3a (RAB3A, member RAS oncogene family) | no change with or without drug | -0.11 | 1.69 | -1.01 | 0.93 | inactive |
| Pphln1 (periphilin 1) | low cell count with doxorubicin only | -2.36 | 0.34 | -2.59 | 0.73 | active |
| Prx (periaxin) | no change with or without drug | 0.9 | -0.51 | 1.46 | 1.02 | inactive |
| B3galt6 | no change with or without drug | -0.45 | 0.84 | -0.9 | 0.9 | inactive |
| Gm38410 (predicted gene, 38410) | no change with or without drug | -0.22 | -0.17 | 0 | 0.92 | inactive |
